Test results taken from patent US11723362B2, “Broad-spectrum synergistic antimicrobial compositions” (The United States of America, as represented by the …, priority 2019, dated 2023).
Some results were stated once for a whole list of compounds, not compound by compound.

Tests used:
A. brasiliensis = test: Extended (97 days) preservative efficacy following USP51 guidelines; type: cell-based, Aspergillus brasiliensis; conditions: combined with a nonionic spray cleaner
[1] = tested on: E. coli, S. aureus, P. aeruginosa, A. brasiliensis, B. cepacia, and C. albicans; conditions: 0.2 wt. % in spray cleaner base

SMILES | log reduction of A. brasiliensis maintained (A. brasiliensis) | log reduction for all 6 organisms tested [1]
CCCCCCCCc1ccc(C=NNC(=N)N)cc1 [4-n-octylbenzaldehyde guanylhydrazone 8, 4-n-octylbenzaldehyde guanylhydrazone] | over 5 log | 
N=C(N)NN=Cc1ccccc1 [Benzaldehyde guanylhydrazone 7, Benzaldehyde guanylhydrazone] | over 5 log | 
CC(C)c1ccc(/C=N/NC(=N)N)cc1 [CG, (2E)-2-{[4-(propan-2-yl)phenyl]methylidene} hydrazine-1-carboximidamidium] | over 5 log | greater than 3 log
